Laboratory results: PubChem BioAssay AID330 (DTP/NCI, 2004)
The list shows only some results of the screen, not a fair sample: it gathers tests that were run many times, whatever their T/C, doses with no T/C, and many T/C values between a quarter and a half above the control. Further doses and runs are listed elsewhere. T/C is the treated group as % of the vehicle group. Some doses have a count of surviving animals in place of a T/C: the source files T/C as zero there, which appears to mark a toxic dose or a test without result, not a measured value. Some survivor counts are full or nearly so, which does not show that the dose was tolerated: the source hardly ever lists a survival T/C far under the control, and the zero likely stands for such cases as well. Counts of survivors are from the toxicity check (mostly the fifth day) where no day follows; animals may have died later. Schedules are NCI's codes, taken here to give the interval after Q, in days (D) or hours (H), and the number of doses after X. Some doses were run more than once; their values stand side by side, smallest first. For survival time, the PubChem record calls one and a half times the control and up active, and a quarter to a half above the control has no call in these data; cut-offs in other NCI protocols can differ.

Test system: P388 leukemia ip, CD2F1 mice, survival T/C
Experiment: NCI In Vivo Anticancer Drug Screen. Data for tumor model P388 Leukemia (intraperitoneal) in CD2F1 (CDF1) mice
Conditions: T/C endpoint: median survival time, higher T/C = longer survival
[1] = dose: 100.0 mg/kg/injection, schedule: Q01DX009 (ip), vehicle: saline with Tween-80
[2] = dose: 200.0 mg/kg/injection, schedule: Q01DX009 (ip), vehicle: saline with Tween-80
[3] = dose: 200.0 mg/kg/injection, schedule: Q01DX005 (ip), vehicle: Klucel (hydroxypropylcellulose) (HPC)
[4] = dose: 200.0 mg/kg/injection, schedule: Q01DX009 (ip), vehicle: Klucel (hydroxypropylcellulose) (HPC)
[5] = dose: 100.0 mg/kg/injection, schedule: Q04DX002 (ip), vehicle: saline with Tween-80
[6] = dose: 400.0 mg/kg/injection, schedule: Q04DX002 (ip), vehicle: saline with Tween-80
[7] = dose: 120.0 mg/kg/injection, schedule: Q01DX005 (ip), vehicle: saline with Tween-80
[8] = dose: 240.0 mg/kg/injection, schedule: Q01DX005 (ip), vehicle: saline with Tween-80
[9] = dose: 200.0 mg/kg/injection, schedule: Q01DX005 (ip), vehicle: saline

SMILES: COc1ccc(Cl)cc1NC(=O)Oc1ccncc1
- survivor count (dose: 6.25 mg/kg/injection, schedule: Q01DX009 (ip), vehicle: saline with Tween-80): 6 of 6
- survivor count (dose: 12.5 mg/kg/injection, schedule: Q01DX009 (ip), vehicle: saline with Tween-80): 6 of 6
- survivor count (dose: 25.0 mg/kg/injection, schedule: Q01DX009 (ip), vehicle: saline with Tween-80): 5 of 6 and 6 of 6
- survivor count (dose: 50.0 mg/kg/injection, schedule: Q01DX009 (ip), vehicle: saline with Tween-80): 6 of 6
- survivor count [1]: 6 of 6

SMILES: CSC1CC(C)(O)Cc2cc3c(c(O)c21)C(=O)c1c(O)cc2c(c1C3=O)OC1OC2(C)C(O)C(N(C)C)C1O (configuration not stated)
- T/C (dose: 2.0 mg/kg/injection, schedule: Q01DX009 (ip), vehicle: other): 131 % of control
- T/C (dose: 4.0 mg/kg/injection, schedule: Q01DX009 (ip), vehicle: other): 129 % of control
- T/C (dose: 8.0 mg/kg/injection, schedule: Q01DX009 (ip), vehicle: other): 137 % of control
- survivor count (dose: 32.0 mg/kg/injection, schedule: Q01DX009 (ip), vehicle: other): 1 of 6

SMILES: CN(C)CCOc1ccc2c(c1)CC/C(=C\c1ncc([N+](=O)[O-])n1C)C2=O
- survivor count [1]: 0 of 6
- survivor count [2]: 0 of 6

SMILES: CCN=C(NCC)c1ccc(NC(=O)Nc2ccc(NC(=O)Nc3ccc(C(=NCC)NCC)cc3)cc2)cc1
- T/C (dose: 12.5 mg/kg/injection, schedule: Q01DX005 (ip), vehicle: Klucel (hydroxypropylcellulose) (HPC)): 142 % of control
- T/C (dose: 25.0 mg/kg/injection, schedule: Q01DX005 (ip), vehicle: Klucel (hydroxypropylcellulose) (HPC)): 138 % of control
- survivor count (dose: 50.0 mg/kg/injection, schedule: Q01DX005 (ip), vehicle: Klucel (hydroxypropylcellulose) (HPC)): 4 of 6
- survivor count (dose: 100.0 mg/kg/injection, schedule: Q01DX005 (ip), vehicle: Klucel (hydroxypropylcellulose) (HPC)): 0 of 6
- survivor count [3]: 0 of 6

SMILES: O=C(CBr)c1cc2c(cc1I)OCO2
- survivor count (dose: 50.0 mg/kg/injection, schedule: Q01DX001 (ip), vehicle: saline with Tween-80): 4 of 6
- survivor count (dose: 100.0 mg/kg/injection, schedule: Q01DX001 (ip), vehicle: saline with Tween-80): 1 of 6
- survivor count (dose: 200.0 mg/kg/injection, schedule: Q01DX001 (ip), vehicle: saline with Tween-80): 3 of 6
- survivor count (dose: 400.0 mg/kg/injection, schedule: Q01DX001 (ip), vehicle: saline with Tween-80): 0 of 6

SMILES: O=[N+]([O-])c1ccccc1OCC1CO1 (configuration not stated)
- survivor count [4]: 4 of 6

SMILES: COCc1cccnc1
- survivor count [3]: 4 of 6

SMILES: Cc1nn(C(=O)c2ccncc2)c(C)c1N=Nc1cccc([N+](=O)[O-])c1
- survivor count (dose: 400.0 mg/kg/injection, schedule: Q04DX003 (ip), vehicle: saline): 0 of 6

SMILES: Cc1nn(C(N)=S)c(C)c1N=Nc1ccc(Cl)cc1Cl
- T/C [5]: 91, 108, 140 % of control
- survivor count [5]: 6 of 6
- T/C (dose: 200.0 mg/kg/injection, schedule: Q04DX002 (ip), vehicle: saline with Tween-80): 86, 96, 107, 140 % of control
- T/C [6]: 96, 103, 149 % of control
- survivor count [6]: 1 of 6
- survivor count (dose: 600.0 mg/kg/injection, schedule: Q04DX002 (ip), vehicle: saline with Tween-80): 0 of 6

SMILES: CN1C(=O)N(C)C2=NC(=O)N(C)C2(C(Cl)(Cl)Cl)C1=O (configuration not stated)
- survivor count [7]: 0 of 6
- survivor count [8]: 0 of 6

SMILES: CCCCCN(CCCCC)c1nsc(Cl)n1
- survivor count [2]: 6 of 6

SMILES: C=CCC(C=C=CCN(C)C)CO (configuration not stated)
- survivor count [9]: 0 of 6

SMILES: C[CH](C)[GeH]([CH](C)C)[CH](C)C
- survivor count (dose: 200.0 mg/kg/injection, schedule: Q01DX009 (ip), vehicle: saline): 5 of 6

SMILES: O=c1[nH]nc(-c2ccccc2)c2c(/C=C/c3ccccc3)onc12
- survivor count [8]: 6 of 6

SMILES: O=C(O)C1CSCN1 (configuration not stated)
- survivor count (dose: 100.0 mg/kg/injection, schedule: Q01DX009 (ip), vehicle: water): 5 of 6
- survivor count (dose: 200.0 mg/kg/injection, schedule: Q01DX009 (ip), vehicle: water): 2 of 6

SMILES: CCCCCC1c2cc(O)ccc2OC1N1CCOCC1 (configuration not stated)
- survivor count [2]: 5 of 6

SMILES: CC(C)N1C(C)c2ccccc2OS1=O (configuration not stated)
- survivor count [4]: 0 of 6

SMILES: O=C(/C=C\c1ccc([N+](=O)[O-])cc1)c1ccccc(=O)c1O
- survivor count (dose: 100.0 mg/kg/injection, schedule: Q01DX001 (ip), vehicle: Klucel (hydroxypropylcellulose) (HPC)): 6 of 6
- survivor count (dose: 200.0 mg/kg/injection, schedule: Q01DX001 (ip), vehicle: Klucel (hydroxypropylcellulose) (HPC)): 4 of 6
- survivor count (dose: 400.0 mg/kg/injection, schedule: Q01DX001 (ip), vehicle: Klucel (hydroxypropylcellulose) (HPC)): 0 of 6

SMILES: Cc1cc2c(c(C(C)(C)C)c1)OC(=O)/C2=C1/C(=O)Oc2c1cc(C)cc2C(C)(C)C
- survivor count (dose: 15.0 mg/kg/injection, schedule: Q01DX005 (ip), vehicle: Klucel (hydroxypropylcellulose) (HPC)): 6 of 6
- survivor count (dose: 30.0 mg/kg/injection, schedule: Q01DX005 (ip), vehicle: Klucel (hydroxypropylcellulose) (HPC)): 6 of 6
- survivor count (dose: 60.0 mg/kg/injection, schedule: Q01DX005 (ip), vehicle: Klucel (hydroxypropylcellulose) (HPC)): 6 of 6
- survivor count (dose: 120.0 mg/kg/injection, schedule: Q01DX005 (ip), vehicle: Klucel (hydroxypropylcellulose) (HPC)): 6 of 6
- survivor count (dose: 240.0 mg/kg/injection, schedule: Q01DX005 (ip), vehicle: Klucel (hydroxypropylcellulose) (HPC)): 6 of 6

SMILES: O=[N+]([O-])c1cccnc1C1OCCO1
- survivor count (dose: 200.0 mg/kg/injection, schedule: Q01DX009 (ip), vehicle: saline + Tween-80 + alcohol): 6 of 6

SMILES: O=C1NC(=O)C(F)[CH]([Ge](=[O])[O][Ge](=[O])[CH]2NC(=O)NC(=O)C2F)N1 (configuration not stated)
- survivor count (dose: 400.0 mg/kg/injection, schedule: Q04DX002 (ip), vehicle: water): 0 of 6

SMILES: CCCCCCOCC(=O)O
- survivor count [2]: 3 of 6

SMILES: CCOc1ccc(/C=N/NC(=S)NC23CC4CC(CC(C4)C2)C3)cc1OCC
- survivor count [7]: 6 of 6
- survivor count [8]: 5 of 6

SMILES: O=C(O)c1ccccc1-c1c2cc(Br)c(=O)cc-2oc2[c]([Hg])c(O)c(Br)cc12
- survivor count (dose: 50.0 mg/kg/injection, schedule: Q01DX005 (ip), vehicle: saline): 3 of 6
- survivor count (dose: 100.0 mg/kg/injection, schedule: Q01DX005 (ip), vehicle: saline): 0 of 6
- survivor count [9]: 0 of 6

SMILES: CCN(CC)CCCC(C)Nc1cc(C)c2nc(C)cc(C)c2c1C (configuration not stated)
- survivor count [1]: 4 of 6
- survivor count [2]: 2 of 6

SMILES: S=c1[nH]c2cc(Cl)ccc2s1
- survivor count [2]: 6 of 6
- survivor count (dose: 400.0 mg/kg/injection, schedule: Q01DX009 (ip), vehicle: saline with Tween-80): 2 of 6

SMILES: COC1/C=C/OC2(C)Oc3c(C)c(O)c4c(O)c(c(/C=N/NC5C6CC7CC(C6)CC5C7)c(O)c4c3C2=O)NC(=O)/C(C)=C/C=C/C(C)C(O)C(C)C(O)C(C)C(OC(C)=O)C1C (configuration not stated)
- survivor count [1]: 5 of 6
- survivor count [2]: 0 of 6

SMILES: Cc1nnc(Cc2ccc([N+](=O)[O-])cc2)c2n[nH]c(C)c12
- survivor count (dose: 200.0 mg/kg/injection, schedule: Q04DX002 (ip), vehicle: Klucel (hydroxypropylcellulose) (HPC)): 6 of 6
- survivor count (dose: 400.0 mg/kg/injection, schedule: Q04DX002 (ip), vehicle: Klucel (hydroxypropylcellulose) (HPC)): 6 of 6

SMILES: O=C(O)C[n+]1ccccc1
- survivor count (dose: 25.0 mg/kg/injection, schedule: Q01DX009 (ip), vehicle: saline): 6 of 6

SMILES: CC(=O)OCC1OC(S[As](C2CCCCC2)C2CCCCC2)C(OC(C)=O)C(OC(C)=O)C1OC(C)=O (configuration not stated)
- survivor count (dose: 100.0 mg/kg/injection, schedule: Q04DX003 (ip), vehicle: Klucel (hydroxypropylcellulose) (HPC)): 4 of 6
- survivor count (dose: 200.0 mg/kg/injection, schedule: Q04DX003 (ip), vehicle: Klucel (hydroxypropylcellulose) (HPC)): 2 of 6
- survivor count (dose: 400.0 mg/kg/injection, schedule: Q04DX003 (ip), vehicle: Klucel (hydroxypropylcellulose) (HPC)): 2 of 6
